These results are taken from publication doi:10.1101/2023.10.01.560355.

By UniProt entry, the sequences of proteins in these tests, tags left out.
UniProt Q9JMB7: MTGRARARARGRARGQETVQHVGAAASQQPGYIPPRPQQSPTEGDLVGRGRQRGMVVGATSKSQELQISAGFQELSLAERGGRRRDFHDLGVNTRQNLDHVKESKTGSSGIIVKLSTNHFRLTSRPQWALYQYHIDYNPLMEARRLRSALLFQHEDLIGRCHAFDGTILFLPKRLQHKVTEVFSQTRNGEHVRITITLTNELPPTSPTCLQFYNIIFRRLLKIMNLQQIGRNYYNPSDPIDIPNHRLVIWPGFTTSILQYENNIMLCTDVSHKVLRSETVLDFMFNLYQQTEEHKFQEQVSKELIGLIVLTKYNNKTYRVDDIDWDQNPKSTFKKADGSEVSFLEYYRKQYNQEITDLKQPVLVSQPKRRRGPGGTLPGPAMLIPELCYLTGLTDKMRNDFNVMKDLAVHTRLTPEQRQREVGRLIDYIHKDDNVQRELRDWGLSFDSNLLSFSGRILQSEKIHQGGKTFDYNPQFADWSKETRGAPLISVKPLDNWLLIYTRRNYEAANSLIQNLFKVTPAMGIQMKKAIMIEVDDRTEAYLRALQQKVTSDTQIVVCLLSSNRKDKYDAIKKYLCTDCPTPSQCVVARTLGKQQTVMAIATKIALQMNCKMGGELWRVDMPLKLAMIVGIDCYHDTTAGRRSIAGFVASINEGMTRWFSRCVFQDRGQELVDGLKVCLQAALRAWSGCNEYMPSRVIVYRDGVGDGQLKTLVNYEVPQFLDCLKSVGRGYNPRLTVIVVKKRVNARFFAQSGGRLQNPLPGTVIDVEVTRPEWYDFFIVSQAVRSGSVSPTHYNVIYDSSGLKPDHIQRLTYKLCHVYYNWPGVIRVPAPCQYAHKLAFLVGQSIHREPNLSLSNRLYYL
UniProt Q62093: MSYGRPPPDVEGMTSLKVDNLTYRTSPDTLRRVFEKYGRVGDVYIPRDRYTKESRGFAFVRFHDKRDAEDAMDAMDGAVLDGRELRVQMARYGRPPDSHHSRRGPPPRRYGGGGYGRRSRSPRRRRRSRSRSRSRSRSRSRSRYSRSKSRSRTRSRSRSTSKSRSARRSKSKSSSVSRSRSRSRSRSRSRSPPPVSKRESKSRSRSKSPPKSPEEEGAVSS
UniProt Q9WTX6: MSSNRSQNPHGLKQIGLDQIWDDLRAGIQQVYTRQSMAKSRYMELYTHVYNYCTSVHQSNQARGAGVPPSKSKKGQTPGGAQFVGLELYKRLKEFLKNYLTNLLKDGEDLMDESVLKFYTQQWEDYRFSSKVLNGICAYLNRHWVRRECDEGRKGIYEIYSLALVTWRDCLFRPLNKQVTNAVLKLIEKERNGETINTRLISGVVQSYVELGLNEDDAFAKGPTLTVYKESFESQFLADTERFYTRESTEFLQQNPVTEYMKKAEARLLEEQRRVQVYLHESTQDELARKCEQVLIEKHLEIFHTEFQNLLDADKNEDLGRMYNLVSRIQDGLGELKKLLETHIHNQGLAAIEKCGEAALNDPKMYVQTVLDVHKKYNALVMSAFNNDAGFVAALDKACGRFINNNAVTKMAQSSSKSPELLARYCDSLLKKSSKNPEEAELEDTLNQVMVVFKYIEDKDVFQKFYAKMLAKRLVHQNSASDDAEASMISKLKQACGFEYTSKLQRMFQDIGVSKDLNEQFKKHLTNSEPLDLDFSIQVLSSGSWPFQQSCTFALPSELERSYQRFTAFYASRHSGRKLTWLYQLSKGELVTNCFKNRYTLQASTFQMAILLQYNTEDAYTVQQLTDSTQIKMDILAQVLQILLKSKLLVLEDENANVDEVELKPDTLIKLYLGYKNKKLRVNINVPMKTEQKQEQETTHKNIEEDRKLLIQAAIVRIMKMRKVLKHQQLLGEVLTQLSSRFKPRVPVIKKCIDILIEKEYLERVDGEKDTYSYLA

What all share (assay): co-IP
In test [1] the target is T1, truncated FBXO24 containing only the F-box domain (UniProt Q9D417).
T1 sequence: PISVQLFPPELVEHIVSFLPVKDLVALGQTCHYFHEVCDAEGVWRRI

Test [2] concerns the target T2, FBXO24-HA (F-Box Protein 24 with a C-terminal HA epitope tag, from Fbxo24-HA-tagged transgenic mice) (mouse) (UniProt Q9D417).
T2 sequence: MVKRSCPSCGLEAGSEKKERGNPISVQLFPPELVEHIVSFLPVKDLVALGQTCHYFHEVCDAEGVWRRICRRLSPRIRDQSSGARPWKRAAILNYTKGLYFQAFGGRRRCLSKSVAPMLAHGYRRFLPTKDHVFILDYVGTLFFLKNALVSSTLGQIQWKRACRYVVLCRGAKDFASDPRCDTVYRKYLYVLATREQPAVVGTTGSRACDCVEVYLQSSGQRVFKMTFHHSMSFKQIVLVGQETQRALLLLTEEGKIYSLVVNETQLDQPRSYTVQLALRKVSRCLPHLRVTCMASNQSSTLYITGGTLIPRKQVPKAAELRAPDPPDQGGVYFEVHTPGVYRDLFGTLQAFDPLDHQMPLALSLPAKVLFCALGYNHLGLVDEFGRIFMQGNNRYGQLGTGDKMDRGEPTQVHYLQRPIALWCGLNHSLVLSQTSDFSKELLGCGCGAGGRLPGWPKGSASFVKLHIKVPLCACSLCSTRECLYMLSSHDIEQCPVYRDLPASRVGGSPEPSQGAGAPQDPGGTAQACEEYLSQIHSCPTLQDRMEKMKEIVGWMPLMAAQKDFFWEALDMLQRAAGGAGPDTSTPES

In a further test the target is T3, FBXO24-mCherry (UniProt Q9D417).
T3 sequence: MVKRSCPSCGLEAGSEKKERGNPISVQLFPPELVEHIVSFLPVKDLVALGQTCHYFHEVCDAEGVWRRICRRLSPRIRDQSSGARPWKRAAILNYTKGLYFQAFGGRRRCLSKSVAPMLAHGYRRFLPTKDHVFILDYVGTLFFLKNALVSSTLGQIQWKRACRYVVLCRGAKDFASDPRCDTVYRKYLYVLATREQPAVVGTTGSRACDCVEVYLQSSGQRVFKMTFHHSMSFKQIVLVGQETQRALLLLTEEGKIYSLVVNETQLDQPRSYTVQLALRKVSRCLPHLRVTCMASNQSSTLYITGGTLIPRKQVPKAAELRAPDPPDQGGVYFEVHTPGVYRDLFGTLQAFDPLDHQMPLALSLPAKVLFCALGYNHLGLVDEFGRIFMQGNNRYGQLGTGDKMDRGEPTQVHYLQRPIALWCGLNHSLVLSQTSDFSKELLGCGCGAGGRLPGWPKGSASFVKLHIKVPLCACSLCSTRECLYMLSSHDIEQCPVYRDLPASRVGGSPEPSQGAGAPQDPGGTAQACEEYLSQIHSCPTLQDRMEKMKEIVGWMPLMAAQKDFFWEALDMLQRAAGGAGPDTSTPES

The target of test [3] is T2, FBXO24-HA (F-Box Protein 24 with a C-terminal HA epitope tag, from Fbxo24-HA-tagged transgenic mice) (mouse). The source holds these as a separate data set.

Read-outs that look alike come from different tables or passages of the source. These are yes or no findings as the source states them, for the method shown. Binding seen in cells or lysates may run through a third protein. Some binding calls cover weakened binding; strength is not graded here. For some of these results: Tags and fused reporters may be left off the sequences shown.

As to MIWI-myc (from UniProt Q9JMB7 1-862), in test [1], the binding result is given as “binds”. Regarding SRSF2 (from UniProt Q62093 1-221), the binding result in test [2] is “binds”. Turning to CUL1 (from UniProt Q9WTX6 1-776), the binding result (with FBXO24-mCherry; in test [2]) was “binds” in each case. As to MIWI (from UniProt Q9JMB7 1-862), the binding result (in the test with FBXO24-mCherry; in test [2]) was “binds” each time.

B1: SRSF3 (protein, UniProt P84104 1-164)
chain: MHRDSCPLDCKVYVGNLGNNGNKTELERAFGYYGPLRSVWVARNPPGFAFVEFEDPRDAADAVRELDGRTLCGCRVRVELSNGEKRSRNRGPPPSWGRRPRDDYRRRSPPPRRRSPRRRSFSRSRSRSLSRDRRRERSLSRERNHKPSRSFSRSRSRSRSNERK
Consider B1, for which, in test [3], the binding result was “binds”.
